Experimental findings from paper PMC12667501 are described below.

Protein sequences, listed by entry. Tags and fused reporters are not part of them.
UniProt P63208: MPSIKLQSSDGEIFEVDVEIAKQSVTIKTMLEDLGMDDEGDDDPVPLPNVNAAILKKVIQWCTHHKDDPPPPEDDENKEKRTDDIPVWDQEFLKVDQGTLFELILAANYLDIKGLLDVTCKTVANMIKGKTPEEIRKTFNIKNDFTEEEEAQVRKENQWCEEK
UniProt P35222: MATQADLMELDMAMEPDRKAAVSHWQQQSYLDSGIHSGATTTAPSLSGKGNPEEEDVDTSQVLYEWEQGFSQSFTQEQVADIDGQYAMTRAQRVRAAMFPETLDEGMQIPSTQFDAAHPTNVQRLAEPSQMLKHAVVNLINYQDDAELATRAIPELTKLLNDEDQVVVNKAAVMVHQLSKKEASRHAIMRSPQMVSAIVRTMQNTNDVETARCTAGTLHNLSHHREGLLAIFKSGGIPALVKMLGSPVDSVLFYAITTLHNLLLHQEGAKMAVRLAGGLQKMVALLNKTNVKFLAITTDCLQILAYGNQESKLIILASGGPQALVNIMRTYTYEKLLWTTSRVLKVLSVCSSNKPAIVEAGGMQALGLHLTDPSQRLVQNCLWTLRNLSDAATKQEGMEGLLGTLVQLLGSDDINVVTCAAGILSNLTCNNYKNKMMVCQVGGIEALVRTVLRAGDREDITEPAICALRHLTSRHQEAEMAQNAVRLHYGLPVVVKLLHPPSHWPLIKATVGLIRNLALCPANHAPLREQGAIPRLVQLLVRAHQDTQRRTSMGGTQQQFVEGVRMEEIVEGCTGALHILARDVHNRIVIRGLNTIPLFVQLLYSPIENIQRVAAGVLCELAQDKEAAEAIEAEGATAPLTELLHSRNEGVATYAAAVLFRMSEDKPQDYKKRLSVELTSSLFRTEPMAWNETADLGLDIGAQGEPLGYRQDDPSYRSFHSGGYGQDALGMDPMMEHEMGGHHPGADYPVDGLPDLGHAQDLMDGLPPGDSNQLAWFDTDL

Results are given in words; binding and its absence hold for the method and conditions named. In cells and extracts the contact can be indirect. Some entries that bind do so weakly or less than the wild type. Sequences can lack the tags named with a protein.

The target of test [1] is T1, Flag-tagged Btrc full-length isoform (FL) (UniProt Q3ULA2).
T1 sequence: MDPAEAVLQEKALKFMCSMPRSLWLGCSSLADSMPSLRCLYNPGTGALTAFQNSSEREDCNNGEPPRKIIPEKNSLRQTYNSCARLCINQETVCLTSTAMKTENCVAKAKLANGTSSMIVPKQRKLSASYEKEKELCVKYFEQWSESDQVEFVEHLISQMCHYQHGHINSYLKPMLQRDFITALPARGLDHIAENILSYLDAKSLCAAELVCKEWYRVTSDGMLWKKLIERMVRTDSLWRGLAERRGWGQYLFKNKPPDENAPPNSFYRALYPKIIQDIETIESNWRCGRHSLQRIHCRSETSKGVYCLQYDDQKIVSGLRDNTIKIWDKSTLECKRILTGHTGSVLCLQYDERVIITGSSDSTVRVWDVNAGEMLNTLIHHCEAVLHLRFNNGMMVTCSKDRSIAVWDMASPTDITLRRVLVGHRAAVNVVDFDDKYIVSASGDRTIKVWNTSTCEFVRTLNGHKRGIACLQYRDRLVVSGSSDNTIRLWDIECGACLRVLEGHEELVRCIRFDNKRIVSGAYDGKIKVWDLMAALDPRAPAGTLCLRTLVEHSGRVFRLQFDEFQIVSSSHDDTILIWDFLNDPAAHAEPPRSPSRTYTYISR
The test is described as follows: co-IP; Flag-tagged Btrc isoforms transfected into HEK293T cells; lysates precipitated with anti-Flag antibody; Western blotting for endogenous Skp1, Cul1 or phospho-β-catenin; for phospho-β-catenin cells treated with MG132 (10 µM) for 12 h. For orientation: Immunoblotting shows a protein as a band on a membrane.

Test [2] concerns the target T1, Flag-tagged Btrc full-length isoform (FL). The test is described as follows: co-IP; Myc-tagged Ube2r2 and Flag-tagged Btrc isoforms cotransfected into HEK293T cells for 48 h; lysates precipitated with anti-Flag antibody; Western blotting with anti-Myc and anti-Flag.

Consider Skp1 (from UniProt P63208 1-163), for which the binding entry in test [1] is “binds”.

As for “phosphorylated β-catenin (from UniProt P35222 1-781)”, in test [1], the binding result is recorded as “binds”.

B1: Myc-tagged Ube2r2 (enzyme, UniProt Q6ZWZ2 1-238)
chain: MAQQQMTSSQKALMLELKSLQEEPVEGFRITLVDESDLYNWEVAIFGPPNTLYEGGYFKAHIKFPIDYPYSPPTFRFLTKMWHPNIYENGDVCISILHPPVDDPQSGELPSERWNPTQNVRTILLSVISLLNEPNTFSPANVDASVMFRKWRDSKGKDKEYAEIIRKQVSATKAEAEKDGVKVPTTLAEYCIKTKVPSNDNSSDLLYDDLYDDDIDDEDEEEEDADCYDDDDSGNEES
Turning to B1, the binding entry in test [2] is given as “binds”.
